Values joined by “and” are separate entries in the source; they are usually repeats but may differ in a detail not shown here. Identical values can stand only once. The list shows a part of the results. Single wells; the ratio to wells without odorant was worked out here, and repeats agree poorly.
How the values were obtained:
Test in all cases: odorant receptor activation (CRE luciferase / Renilla) (fold of no-odor wells); higher = more activation
Settings in all cases: 100 µM
OR2L8 clone 1515 = tested on: OR2L8 clone 1515
[1] = tested on: OR2M2 R220G/C235R clone 1494
OR2M3 clone 1054 = tested on: OR2M3 clone 1054
OR2M4 clone 1053 = tested on: OR2M4 clone 1053
OR2M5 clone 1167 = tested on: OR2M5 clone 1167
[2] = tested on: OR2M7 F35L/V78A/C178F clone 1378
[3] = tested on: OR2M7 F35L/V78A/C178F/D191N clone 1401
OR2M7 clone 1377 = tested on: OR2M7 clone 1377
OR2S2 clone 1462 = tested on: OR2S2 clone 1462
OR2T1 P132L clone 1474 = tested on: OR2T1 P132L clone 1474

SMILES	odorant receptor activation (OR2L8 clone 1515)	odorant receptor activation [1]	odorant receptor activation (OR2M3 clone 1054)	odorant receptor activation (OR2M4 clone 1053)	odorant receptor activation (OR2M5 clone 1167)	odorant receptor activation [2]	odorant receptor activation [3]	odorant receptor activation (OR2M7 clone 1377)	odorant receptor activation (OR2S2 clone 1462)	odorant receptor activation (OR2T1 P132L clone 1474)
C=CCc1ccc(OC(C)=O)c(OC)c1 [eugenol acetate]	1.61	1.46	1.51	1.86	1.8	1.8	1.76	1.61	1.5	2.26
CC12C=CCC1C1CCC3=CC(=O)CCC3(C)C1CC2 (stereo not given) [androstadienone]	0.861 and 1.2	0.966 and 1.04	1.29	0.861	1.34	1.15	0.658	1.05	0.849 and 1.42	0.983 and 1.61
C=CCc1ccc(O)c(OC)c1 [eugenol]	2.08 and 1.25 and 1.02	1.65 and 0.993 and 1.44	1.97 and 1.19	1.17 and 1.31	2.46 and 1.44	1.18 and 1.7	1.44 and 1.11	0.965 and 1.58	1.07 and 1.12 and 1.29	2.77 and 1.5 and 1.38
CC1=CCC(C(C)(C)O)CC1 (stereo not given) [terpineol]	0.827	0.705	1.12	1.12	1.27	0.951	1.08	0.92	0.896	0.744
CCCCCC(=O)O [caproic acid]	1.2	0.916	0.955	0.928	0.877	0.216	0.192	0.215	0.997	0.903
C=C(C)C1CC=CCC1 (stereo not given) [r-limonene]	1.2 and 1.11 and 0.787	0.893 and 0.978 and 0.943	1.23 and 2.12	1.34 and 1.82	1.23 and 0.468	1.39 and 0.731	1.12 and 1.13	1.17 and 0.905	0.836 and 0.976 and 1.01	0.986 and 0.568 and 1.27
COc1cc(C=O)ccc1O [vanillin]	1.11	0.783	0.768	0.902	1.14	0.937	0.849	0.934	0.989	1.21
c1ccc(Oc2ccccc2)cc1 [diphenyl ether]	1.22	1.07	0.808	0.901	1.13	1.06	0.783	0.828	1.12	1.31
CC1CCC(C(C)C)C(O)C1 (single isomer, unassigned; (-)) [(-)-menthol]	4.36	1.25	2.28	3.72	1.1	0.551	0.967	0.493	2.54	1.06
CC(=O)OCC=C(C)CCC=C(C)C [geranyl acetate]	0.981 and 1.25	0.94 and 1.21	1.38	1.31	1.78	1.34	0.873	1.38	1.03 and 1.67	0.976 and 1.96
COc1ccccc1O [guaiacol]	0.708 and 0.974	1 and 1.02	1.34	0.843	1.29	0.883	0.713	0.949	0.811 and 1.23	0.797 and 1.18
CC(C)(C)c1ccc(CCC=O)cc1 [bourgeonal]	1.34	0.744	0.853	0.779	0.618	0.176	0.172	0.214	0.903	0.776
C=CCc1ccc(OC)c(OC)c1 [eugenol methyl ether]	1.47	1.59	1.33	1.4	1.56	1.79	1.38	1.46	1.3	1.61
CCCCCOC(C)=O [n-amyl acetate]	1.18 and 0.762	0.809 and 0.989	1.24	1.13	0.583	0.875	0.995	0.757	0.889 and 0.943	0.575 and 1.38
C=CCSCC=C [diallyl sulfide]	1.18	1.19	0.727	0.896	1.24	1.13	0.926	0.967	1.22	1.26
O=C1CCCCC1 [Cyclohexanone]	1.14 and 1.22	1.04 and 0.843	1.01	0.823	0.587	0.761	0.99	0.906	0.969 and 1.1	0.581 and 1.14
CC12CCC(C1)C(C)(C)C2=O (stereo not given) [fenchone]	0.923	1.38	0.732	0.816	1.1	1.06	0.864	0.77	1.29	1.4
CC(C)CC(=O)O [isovaleric acid]	0.91	0.895	1.16	1.35	1.19	0.93	0.861	0.738	0.997	1.01
CCCCCCCCCC=O [decyl aldehyde]	1.27	1.23	0.913	1.11	1.21	1.57	1.14	1.44	1.25	1.3
COC(=O)c1ccccc1 [methyl benzoate]	1.17 and 1.21	0.778 and 0.951	1.16	1.73	0.702	0.995	1.06	0.801	0.8 and 1.01	0.714 and 1.2
C=C(C)C1CC=C(C)C(=O)C1 (stereo not given) [r-carvone]	0.986	0.878	0.847	1.08	1.18	1.02	1	1.14	1.1	1.11
CC/C=C\CCO [cis-3-hexen-1-ol]	1.41	0.904	1.24	0.952	1.09	0.219	0.246	0.247	0.827	0.965
CCCCCCCC=CC=O [2-decenal]	1.73	1.13	2.02	3.28	0.784	1.99	0.906	1.16	1.32	1.34
CC12CCC(CC1)C(C)(C)O2 [cineole]	1.29	0.938	1.36	0.679	0.793	0.204	0.2	0.217	1.2	0.982
CC(C)CCC(=O)O [4-methylvaleric acid]	1.35	0.665	1.37	1.69	1.31	0.431	1.1	0.863	0.86	0.996
CCC1(O)C2(C)CCC(C2)C1(C)C (stereo not given) [2-ethylfenchol]	1.21	0.845	2.81	3.19	0.882	0.72	0.52	0.705	1.15	1.06
CCCCCCOC(=O)CCC [hexyl butyrate]	0.772 and 0.741	0.975 and 0.826	0.951	0.848	1.28	0.949	0.756	1	1.06 and 1.23	0.635 and 1.2

Source: the odorant receptor screen of Mainland et al. (2015)
